Assay results from paper PMC7588057.
No constants are given. Whether binding was seen depends on the method and setting. Binding seen in cells or lysates may run through a third protein. Some results given as binding are weak or reduced against the parent protein; the word gives no strength. Sequences can lack the tags named with a protein.

Target: GFP-TRIM5 (tripartite motif-containing protein 5, isoform α), wild type, Q0PF16
Assay: co-IP; lysates of transiently transfected HEK293T cells, IP lysis buffer with 1% NP-40; immunoprecipitation with anti-GFP (for the TRIM5-TAK1 pair also with anti-FLAG), immunoblot; TRIM5-TAK1 also in ULK1, BECN1 and ATG7 knockout HEK293T cells
Conditions: remark: other sources report otherwise

binding: binds
B1: FLAG-TAK1 (TGFβ-activated kinase 1; MAP3K7), O43318 1-606 (enzyme)
chain: MSTASAASSSSSSSAGEMIEAPSQVLNFEEIDYKEIEVEEVVGRGAFGVVCKAKWRAKDVAIKQIESESERKAFIVELRQLSRVNHPNIVKLYGACLNPVCLVMEYAEGGSLYNVLHGAEPLPYYTAAHAMSWCLQCSQGVAYLHSMQPKALIHRDLKPPNLLLVAGGTVLKICDFGTACDIQTHMTNNKGSAAWMAPEVFEGSNYSEKCDVFSWGIILWEVITRRKPFDEIGGPAFRIMWAVHNGTRPPLIKNLPKPIESLMTRCWSKDPSQRPSMEEIVKIMTHLMRYFPGADEPLQYPCQYSDEGQSNSATSTGSFMDIASTNTSNKSDTNMEQVPATNDTIKRLESKLLKNQAKQQSESGRLSLGASRGSSVESLPPTSEGKRMSADMSEIEARIAATTAYSKPKRGHRKTASFGNILDVPEIVISGNGQPRRRSIQDLTVTGTEPGQVSSRSSSPSVRMITTSGPTSEKPTRSHPWTPDDSTDTNGSDNSIPMAYLTLDHQLQPLAPCPNSKESMAVFEQHCKMAQEYMKVQTEIALLLQRKQELVAELDQDEKDQQNTSRLVQEHKKLLDENKSLSTYYQQCKKQLEVIRSQQQKRQGTS
